This experiment concerns the target T1, human μ-opiate receptor (Homo sapiens, UniProt P35372).
T1 construct: purchased NEN, Zaventem, Belgium RB-HOM; host or cells: CHO-K1 cells (membrane preparation)
Description: biochemical. The experiment is classed as binding.

Chains of the proteins cited; added tags and fusions are not shown.
UniProt P35372, whole entry: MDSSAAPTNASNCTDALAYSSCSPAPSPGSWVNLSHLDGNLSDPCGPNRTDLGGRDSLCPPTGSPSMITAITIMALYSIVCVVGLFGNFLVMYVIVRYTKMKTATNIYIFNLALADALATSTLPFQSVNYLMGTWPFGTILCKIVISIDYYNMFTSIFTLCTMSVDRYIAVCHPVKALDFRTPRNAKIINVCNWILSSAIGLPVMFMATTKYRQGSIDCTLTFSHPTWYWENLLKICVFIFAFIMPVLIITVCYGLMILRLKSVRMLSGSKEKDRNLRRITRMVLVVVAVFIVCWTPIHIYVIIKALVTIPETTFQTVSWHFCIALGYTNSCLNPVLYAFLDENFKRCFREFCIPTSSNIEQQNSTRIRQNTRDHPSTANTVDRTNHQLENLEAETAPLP

For orientation: Ki means a measure of affinity in units of concentration, obtained from inhibition or displacement. High values mean lower affinity, low ones higher affinity. Take `CCC1(c2cccc(O)c2)CCCCN(C)C1` (stereo not shown) [meptazinol]: the Ki was found to be 150 nM.

Source of the values: patent US20080125475A1 (priority 2006, published 2008).
